In experiment [1] the target is Human γD-crystallin I90F (human) (UniProt P07320). As to the kind of experiment: SEC; native mixing: HγD and chaperone 1:1, each 1 mg/ml in SEC buffer, 37°C with gentle rotation for 14 to 28 days; filtered (0.2 µm), Superose 6 10/300 GL; fractions checked by Western blot (αB, HγD) or Trp fluorescence; both purified. (SEC sorts molecules by how far they enter the pores of the column.)

The target is the same in experiment [2]. The experiment is described as follows: SEC; HγD unfolded overnight in 5 M GdnHCl at 37°C, diluted 10-fold into refolding buffer (100 mM sodium phosphate, 1 mM EDTA, 5 mM DTT, pH 7.0) with αB in 5-fold molar excess (0.1 mg/ml HγD, 0.5 mg/ml αB, 0.5 M GdnHCl), 37°C; the suppression reaction then run over Superose 6; both purified.
Experiment [3] shares this target. The experiment is described as follows: condition: only upon initial mixing (0 days), before the incubation at 37°C; SEC; native mixing as in a2 but upon initial mixing (0 days, no incubation); Superose 6 10/300 GL; both purified.

Where a chain is given by its changes, count along the chain named. Names and notes keep the numbering of the source. These are yes or no findings as the source states them, for the method shown. Some results given as binding are weak or reduced against the parent protein; the word gives no strength.

B1: αB-crystallin, wild type (protein, UniProt P02511 1-175)
chain: MDIAIHHPWIRRPFFPFHSPSRLFDQFFGEHLLESDLFPTSTSLSPFYLRPPSFLRAPSWFDTGLSEMRLEKDRFSVNLDVKHFSPEELKVKVLGDVIEVHGKHEERQDEHGFISREFHRKYRIPADVDPLTITSSLSSDGVLTVNGPRKQVSGPERTIPITREEKPAVTAAPKK
With B1, the binding result in experiment [1] and in experiment [2] was “binds” in each case.

B2: αB-crystallin W9F/W60F (lacking tryptophans) (protein, UniProt P02511 1-175)
chain: B1 chain with W9F, W60F
On to B2, for which the binding entry in experiment [1] is given as “binds”; in experiment [3], “no binding”.

Source of the values: publication PMC3360035.
